Results taken from the supplement of paper PMC10849652.
This is one part of the list.

Sequences of proteins named here, by UniProt entry; tags and fusion partners are left off. A change or cut given only in a name is not applied to a line headed by its entry.
UniProt P51511: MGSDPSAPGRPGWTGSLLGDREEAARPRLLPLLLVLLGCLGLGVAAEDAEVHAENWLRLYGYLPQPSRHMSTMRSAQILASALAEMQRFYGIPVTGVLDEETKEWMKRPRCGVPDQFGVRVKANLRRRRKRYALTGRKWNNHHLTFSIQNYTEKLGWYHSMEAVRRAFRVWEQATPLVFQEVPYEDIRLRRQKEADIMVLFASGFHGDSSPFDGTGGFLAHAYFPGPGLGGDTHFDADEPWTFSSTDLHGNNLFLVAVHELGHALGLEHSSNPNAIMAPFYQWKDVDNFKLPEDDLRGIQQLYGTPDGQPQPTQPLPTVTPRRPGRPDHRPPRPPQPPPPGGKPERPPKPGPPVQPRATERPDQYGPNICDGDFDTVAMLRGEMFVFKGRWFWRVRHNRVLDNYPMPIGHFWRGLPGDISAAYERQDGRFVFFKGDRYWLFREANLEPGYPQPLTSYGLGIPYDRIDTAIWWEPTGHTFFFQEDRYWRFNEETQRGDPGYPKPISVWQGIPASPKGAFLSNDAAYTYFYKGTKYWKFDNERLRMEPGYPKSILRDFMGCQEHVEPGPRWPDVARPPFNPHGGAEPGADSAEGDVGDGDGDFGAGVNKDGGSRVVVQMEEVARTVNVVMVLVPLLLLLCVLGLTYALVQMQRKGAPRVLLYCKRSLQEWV
UniProt O94851, whole entry, looked up: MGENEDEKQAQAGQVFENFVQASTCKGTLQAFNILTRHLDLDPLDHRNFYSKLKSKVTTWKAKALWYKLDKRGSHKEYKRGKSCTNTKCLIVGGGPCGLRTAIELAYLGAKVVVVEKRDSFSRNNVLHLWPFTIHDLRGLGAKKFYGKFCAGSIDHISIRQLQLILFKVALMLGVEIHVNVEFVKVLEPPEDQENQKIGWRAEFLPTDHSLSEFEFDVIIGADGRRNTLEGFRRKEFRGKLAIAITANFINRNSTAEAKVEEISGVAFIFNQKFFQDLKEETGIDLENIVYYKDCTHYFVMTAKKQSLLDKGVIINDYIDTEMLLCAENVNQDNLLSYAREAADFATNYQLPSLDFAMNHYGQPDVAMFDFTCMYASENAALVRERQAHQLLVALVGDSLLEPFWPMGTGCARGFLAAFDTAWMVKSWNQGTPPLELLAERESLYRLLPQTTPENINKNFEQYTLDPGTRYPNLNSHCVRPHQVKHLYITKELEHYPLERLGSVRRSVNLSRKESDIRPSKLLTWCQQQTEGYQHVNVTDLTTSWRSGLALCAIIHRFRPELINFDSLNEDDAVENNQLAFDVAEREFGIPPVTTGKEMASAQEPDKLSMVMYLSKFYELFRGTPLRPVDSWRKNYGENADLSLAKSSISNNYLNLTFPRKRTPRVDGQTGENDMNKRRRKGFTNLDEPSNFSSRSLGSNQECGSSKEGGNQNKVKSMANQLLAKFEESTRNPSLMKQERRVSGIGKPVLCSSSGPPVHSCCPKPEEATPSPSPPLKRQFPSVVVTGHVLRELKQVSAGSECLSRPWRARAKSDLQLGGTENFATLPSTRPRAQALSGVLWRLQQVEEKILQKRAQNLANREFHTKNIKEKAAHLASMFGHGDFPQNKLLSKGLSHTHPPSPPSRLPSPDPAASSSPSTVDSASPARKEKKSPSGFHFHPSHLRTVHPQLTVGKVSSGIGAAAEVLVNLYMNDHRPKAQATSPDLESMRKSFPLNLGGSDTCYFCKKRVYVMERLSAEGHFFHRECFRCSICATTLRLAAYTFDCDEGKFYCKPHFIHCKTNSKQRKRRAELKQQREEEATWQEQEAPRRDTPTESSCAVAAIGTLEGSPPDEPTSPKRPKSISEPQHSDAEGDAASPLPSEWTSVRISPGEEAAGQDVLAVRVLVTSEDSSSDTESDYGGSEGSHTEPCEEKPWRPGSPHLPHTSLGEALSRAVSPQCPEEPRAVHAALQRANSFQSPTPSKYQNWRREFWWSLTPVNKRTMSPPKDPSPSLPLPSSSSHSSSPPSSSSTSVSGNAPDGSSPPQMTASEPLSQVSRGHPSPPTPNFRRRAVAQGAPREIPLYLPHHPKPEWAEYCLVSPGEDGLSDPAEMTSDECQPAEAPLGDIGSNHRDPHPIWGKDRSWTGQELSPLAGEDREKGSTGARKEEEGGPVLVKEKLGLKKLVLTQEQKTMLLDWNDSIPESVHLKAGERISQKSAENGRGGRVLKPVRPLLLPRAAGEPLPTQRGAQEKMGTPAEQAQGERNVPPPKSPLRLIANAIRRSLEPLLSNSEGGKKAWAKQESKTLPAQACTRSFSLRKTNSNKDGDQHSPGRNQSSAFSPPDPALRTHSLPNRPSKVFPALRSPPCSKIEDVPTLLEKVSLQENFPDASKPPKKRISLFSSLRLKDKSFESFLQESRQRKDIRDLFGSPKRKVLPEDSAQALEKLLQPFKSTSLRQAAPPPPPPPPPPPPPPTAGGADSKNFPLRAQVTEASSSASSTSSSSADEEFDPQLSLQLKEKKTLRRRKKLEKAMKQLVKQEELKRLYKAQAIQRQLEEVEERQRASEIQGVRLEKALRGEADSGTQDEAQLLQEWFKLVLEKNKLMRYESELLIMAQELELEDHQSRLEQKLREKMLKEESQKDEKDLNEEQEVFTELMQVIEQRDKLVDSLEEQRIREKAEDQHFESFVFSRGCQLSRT
UniProt Q13201: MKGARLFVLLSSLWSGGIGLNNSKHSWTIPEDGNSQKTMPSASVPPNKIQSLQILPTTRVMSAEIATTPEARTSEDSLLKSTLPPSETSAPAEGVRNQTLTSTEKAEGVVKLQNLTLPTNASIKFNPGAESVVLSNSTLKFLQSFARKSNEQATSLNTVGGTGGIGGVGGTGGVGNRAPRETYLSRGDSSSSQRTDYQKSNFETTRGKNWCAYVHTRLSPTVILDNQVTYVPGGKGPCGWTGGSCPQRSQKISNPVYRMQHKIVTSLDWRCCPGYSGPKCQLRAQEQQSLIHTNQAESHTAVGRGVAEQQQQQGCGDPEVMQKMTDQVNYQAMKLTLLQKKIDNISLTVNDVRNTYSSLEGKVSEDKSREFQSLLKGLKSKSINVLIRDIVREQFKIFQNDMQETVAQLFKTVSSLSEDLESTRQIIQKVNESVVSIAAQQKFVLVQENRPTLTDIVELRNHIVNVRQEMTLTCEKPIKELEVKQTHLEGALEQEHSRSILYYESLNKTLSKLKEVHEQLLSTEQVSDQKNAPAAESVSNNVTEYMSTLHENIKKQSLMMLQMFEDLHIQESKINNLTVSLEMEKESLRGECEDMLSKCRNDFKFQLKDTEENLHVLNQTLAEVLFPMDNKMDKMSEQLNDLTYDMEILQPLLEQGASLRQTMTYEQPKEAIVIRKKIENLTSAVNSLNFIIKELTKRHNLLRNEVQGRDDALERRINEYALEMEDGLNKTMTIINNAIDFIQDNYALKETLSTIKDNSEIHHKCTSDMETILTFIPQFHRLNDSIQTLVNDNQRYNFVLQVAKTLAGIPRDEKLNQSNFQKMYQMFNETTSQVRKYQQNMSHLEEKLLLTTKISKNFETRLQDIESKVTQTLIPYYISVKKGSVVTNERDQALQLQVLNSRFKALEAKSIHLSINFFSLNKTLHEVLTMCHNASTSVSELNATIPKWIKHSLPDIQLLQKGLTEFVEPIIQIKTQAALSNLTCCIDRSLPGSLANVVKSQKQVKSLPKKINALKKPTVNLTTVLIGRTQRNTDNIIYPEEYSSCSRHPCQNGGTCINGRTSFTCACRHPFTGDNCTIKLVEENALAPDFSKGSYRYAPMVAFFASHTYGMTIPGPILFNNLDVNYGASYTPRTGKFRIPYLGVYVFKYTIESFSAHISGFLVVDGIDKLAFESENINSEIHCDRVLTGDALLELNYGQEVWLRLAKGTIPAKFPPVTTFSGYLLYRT
UniProt Q8NB16: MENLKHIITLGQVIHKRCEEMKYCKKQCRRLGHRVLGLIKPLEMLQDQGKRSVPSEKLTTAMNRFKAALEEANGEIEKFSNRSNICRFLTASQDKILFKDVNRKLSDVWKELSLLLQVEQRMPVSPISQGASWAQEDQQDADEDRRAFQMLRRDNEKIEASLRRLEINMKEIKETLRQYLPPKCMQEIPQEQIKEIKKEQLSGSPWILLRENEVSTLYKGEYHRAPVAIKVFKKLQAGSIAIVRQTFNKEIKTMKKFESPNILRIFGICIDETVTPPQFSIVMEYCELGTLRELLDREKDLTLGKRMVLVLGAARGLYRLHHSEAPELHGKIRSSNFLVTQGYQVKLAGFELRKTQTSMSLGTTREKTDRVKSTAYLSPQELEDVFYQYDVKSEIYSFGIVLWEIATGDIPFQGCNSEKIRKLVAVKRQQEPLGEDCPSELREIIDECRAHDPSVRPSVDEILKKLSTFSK
UniProt Q8N4V1: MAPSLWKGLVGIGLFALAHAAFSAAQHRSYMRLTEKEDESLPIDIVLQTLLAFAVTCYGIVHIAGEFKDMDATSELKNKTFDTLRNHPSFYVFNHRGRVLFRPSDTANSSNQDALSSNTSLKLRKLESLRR
UniProt P40692: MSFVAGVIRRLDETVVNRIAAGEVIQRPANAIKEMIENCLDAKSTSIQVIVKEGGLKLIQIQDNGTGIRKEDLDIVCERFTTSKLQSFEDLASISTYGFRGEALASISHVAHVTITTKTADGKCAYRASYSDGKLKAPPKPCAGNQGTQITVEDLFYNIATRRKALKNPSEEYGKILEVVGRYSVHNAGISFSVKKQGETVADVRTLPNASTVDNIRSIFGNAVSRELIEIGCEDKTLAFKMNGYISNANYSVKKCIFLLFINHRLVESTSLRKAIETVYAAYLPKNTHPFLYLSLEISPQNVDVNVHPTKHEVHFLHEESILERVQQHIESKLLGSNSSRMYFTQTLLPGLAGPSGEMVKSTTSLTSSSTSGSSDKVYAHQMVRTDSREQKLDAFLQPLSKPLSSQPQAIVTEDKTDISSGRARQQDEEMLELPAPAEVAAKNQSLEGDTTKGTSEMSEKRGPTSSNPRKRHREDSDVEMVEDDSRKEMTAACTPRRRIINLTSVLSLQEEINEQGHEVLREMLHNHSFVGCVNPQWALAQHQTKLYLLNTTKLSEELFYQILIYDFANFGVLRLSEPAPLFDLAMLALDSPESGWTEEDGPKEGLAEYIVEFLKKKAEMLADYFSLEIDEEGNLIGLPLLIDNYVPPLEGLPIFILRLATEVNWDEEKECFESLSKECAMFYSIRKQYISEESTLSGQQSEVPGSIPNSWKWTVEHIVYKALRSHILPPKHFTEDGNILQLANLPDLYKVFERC
UniProt Q9UHC7: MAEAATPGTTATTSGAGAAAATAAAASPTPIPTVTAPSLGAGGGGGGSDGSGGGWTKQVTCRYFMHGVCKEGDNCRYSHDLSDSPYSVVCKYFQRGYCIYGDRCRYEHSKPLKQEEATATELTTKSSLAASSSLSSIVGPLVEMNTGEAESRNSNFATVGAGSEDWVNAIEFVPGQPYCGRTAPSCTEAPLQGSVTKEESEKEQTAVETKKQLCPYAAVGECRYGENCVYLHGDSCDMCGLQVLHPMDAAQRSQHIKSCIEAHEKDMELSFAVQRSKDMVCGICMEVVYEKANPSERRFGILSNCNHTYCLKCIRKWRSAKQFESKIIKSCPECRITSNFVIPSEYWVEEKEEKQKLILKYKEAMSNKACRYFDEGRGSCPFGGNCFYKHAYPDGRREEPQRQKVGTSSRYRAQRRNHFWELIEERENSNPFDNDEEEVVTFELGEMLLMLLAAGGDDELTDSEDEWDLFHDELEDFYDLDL
UniProt Q9NPA3, whole entry, looked up: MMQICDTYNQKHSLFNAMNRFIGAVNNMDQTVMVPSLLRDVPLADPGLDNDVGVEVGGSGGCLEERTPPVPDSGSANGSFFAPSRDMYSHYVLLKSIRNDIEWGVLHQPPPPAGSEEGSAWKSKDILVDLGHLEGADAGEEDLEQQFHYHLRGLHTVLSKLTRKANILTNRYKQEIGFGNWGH
UniProt O95297: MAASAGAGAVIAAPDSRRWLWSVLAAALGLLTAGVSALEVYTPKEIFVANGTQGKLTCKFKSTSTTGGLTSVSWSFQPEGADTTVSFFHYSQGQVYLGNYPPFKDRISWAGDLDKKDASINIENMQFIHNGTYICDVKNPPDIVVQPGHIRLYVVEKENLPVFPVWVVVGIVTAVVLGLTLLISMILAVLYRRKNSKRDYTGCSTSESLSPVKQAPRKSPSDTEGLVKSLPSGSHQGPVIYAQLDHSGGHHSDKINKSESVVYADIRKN
UniProt Q9UJG1: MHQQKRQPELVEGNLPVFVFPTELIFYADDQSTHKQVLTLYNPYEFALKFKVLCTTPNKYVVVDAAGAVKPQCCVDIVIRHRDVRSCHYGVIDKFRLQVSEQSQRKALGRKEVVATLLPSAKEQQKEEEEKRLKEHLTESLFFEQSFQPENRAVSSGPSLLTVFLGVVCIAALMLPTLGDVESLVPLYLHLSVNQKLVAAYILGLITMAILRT
UniProt Q9Y5U8: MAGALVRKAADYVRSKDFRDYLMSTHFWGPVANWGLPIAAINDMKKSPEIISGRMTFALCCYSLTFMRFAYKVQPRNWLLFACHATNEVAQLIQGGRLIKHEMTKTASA

How the values were obtained:
Assay in all cases: log2 fold change, soluble protein after heating vs DMSO (PISA); higher = thermal stabilisation; K562 cells, 10 uM, 30 min; active = over 0.2 and 3.5 SD of the protein, either way, in both replicates (recomputed)
[1] = compound: CCn1cc(-c2ccnc3[nH]c(-c4cccc(CN(C)C)c4)cc23)c(-c2ccc(NC(=O)N(C)C)cc2)n1
How it was run: (§1)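 Thermal stability values are relative to control samples and come from duplicates. They are expressed as log2 fold changes. For measurement, K562 cells (2×10^6 cells/mL) received 10 μM compound for 30 min, and aliquots were heated for 3 min over 48°C-58°C, pooled, and extracted at 4°C in PBS with 0.5% NP-40. Soluble protein, the supernatant after 21,000xg for 90 min, was quantified by TMTpro 16plex LC-MS/MS with equalised channel sums.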

[2] = compound: CN1CCC(CNc2ccc3ncc(-c4cccc(OC(F)(F)F)c4)n3n2)CC1
How it was run: as §1

[3] = compound: CC[C@@H]1C(=O)N(C)c2cnc(Nc3ccc(C(=O)NC4CCN(C)CC4)cc3OC)nc2N1C1CCCC1
How it was run: as §1

volasertib = compound: CC[C@@H]1C(=O)N(C)c2cnc(Nc3ccc(C(=O)N[C@H]4CC[C@H](N5CCN(CC6CC6)CC5)CC4)cc3OC)nc2N1C(C)C [volasertib]
How it was run: as §1

[4] = compound: CC[C@H](C)N1C=C(C2=C(C=C(C=C21)C3=CN=C(C=C3)N4CCNCC4)C(=O)NCC5=C(C=C(NC5=O)C)C)C
How it was run: as §1

[5] = compound: CCn1c(C(=O)N(C2CC2)C2CC2)cc2c3c(ncn3C)c(Nc3cc(C)n(C)n3)nc21
How it was run: as §1

[6] = compound: CN(C)CC(=O)Nc1ccc2[nH]c(=O)c3ccccc3c2c1
How it was run: as §1

rosiglitazone = compound: CN(CCOC1=CC=C(C=C1)C[C@H]2C(=O)NC(=O)S2)C3=CC=CC=N3 (racemic) [rosiglitazone]
How it was run: as §1

[7] = compound: CN1C2=C(C3=C1C(=O)N(N=C3)CC4=CC(=CC=C4)N)SC(=C2)S(=O)C
How it was run: as §1

saracatinib = compound: CN1CCN(CCOc2cc(OC3CCOCC3)c3c(Nc4c(Cl)ccc5c4OCO5)ncnc3c2)CC1 [saracatinib]
How it was run: as §1

sotrastaurin = compound: CN1CCN(c2nc(C3=C(c4c[nH]c5ccccc45)C(=O)NC3=O)c3ccccc3n2)CC1 [sotrastaurin]
How it was run: as §1

alvocidib = compound: CN1CC[C@H](c2c(O)cc(O)c3c(=O)cc(-c4ccccc4Cl)oc23)[C@H](O)C1 [alvocidib]
How it was run: as §1

Tubastatin A = compound: CN1CCc2c(c3ccccc3n2Cc2ccc(C(=O)NO)cc2)C1 [Tubastatin A]
How it was run: as §1

[8] = compound: CNC(=O)C1=CC=CC=C1NC2=NC(=NC=C2Cl)NC3=C(C=C(C=C3)N4CCOCC4)OC
How it was run: as §1

defactinib = compound: CNC(=O)c1ccc(Nc2ncc(C(F)(F)F)c(NCc3nccnc3N(C)S(C)(=O)=O)n2)cc1 [defactinib]
How it was run: as §1

rucaparib = compound: CNCc1ccc(-c2[nH]c3cc(F)cc4c3c2CCNC4=O)cc1 [rucaparib]
How it was run: as §1

[9] = compound: CNc1nc(-c2ccc3c(N)n[nH]c3c2)cc(N2C[C@@H](C(=O)NC3CCCCC3)CC[C@H]2C)n1
How it was run: as §1

encorafenib = compound: COC(=O)N[C@@H](C)CNc1nccc(-c2cn(C(C)C)nc2-c2cc(Cl)cc(NS(C)(=O)=O)c2F)n1 [encorafenib]
How it was run: as §1

[10] = compound: COC(=O)[C@H](CCSC)NC(=O)C1=C(C=C(C=C1)NC[C@H](CS)N)C2=CC=CC=C2
How it was run: as §1

epoxomicin = compound: CC[C@H](C)[C@@H](C(=O)N[C@@H]([C@@H](C)O)C(=O)N[C@@H](CC(C)C)C(=O)[C@]1(CO1)C)NC(=O)[C@H]([C@@H](C)CC)N(C)C(=O)C [epoxomicin]
How it was run: as §1

Measured: log2 fold change

MMP15 (UniProt P51511)
inactive: [1] -0.024 | [2] -0.056

MMTAG2 (UniProt Q9BU76)
inactive: [3] 0.088 | volasertib 0.306 | [4] 0.004 | [5] 0.024 | [1] 0.251 | [6] -0.052 | rosiglitazone -0.306 | [7] 0.199 | [2] 0.106 | saracatinib -0.015 | sotrastaurin -0.018 | alvocidib 0.158 | Tubastatin A 0.121 | [8] 0.003 | defactinib 0.304 | rucaparib 0.138 | [9] -0.072 | encorafenib 0.014 | [10] -0.054

MICAL2 (UniProt O94851)
inactive: [3] 0.035 | epoxomicin 0.149 | [1] -0.015 | [6] 0.069 | rosiglitazone 0.063 | [7] 0.192 | [2] -0.242 | saracatinib -0.008 | alvocidib 0.101 | Tubastatin A 0.026 | defactinib 0.028 | rucaparib 0.092 | [9] 0.322 | encorafenib 0.224 | [10] -0.083

Reprinted from the listing (2 entries):
MMP15 (UniProt P51511)
inactive: [1] -0.024 | [2] -0.056

MMTAG2 (UniProt Q9BU76)
inactive: [3] 0.088 | volasertib 0.306 | [4] 0.004 | [5] 0.024 | [1] 0.251 | [6] -0.052 | rosiglitazone -0.306 | [7] 0.199 | [2] 0.106 | saracatinib -0.015 | sotrastaurin -0.018 | alvocidib 0.158 | Tubastatin A 0.121 | [8] 0.003 | defactinib 0.304 | rucaparib 0.138 | [9] -0.072 | encorafenib 0.014 | [10] -0.054

Next part.

MMRN1 (UniProt Q13201)
inactive: [7] -0.256 | saracatinib -0.038 | sotrastaurin 0.02 | [9] -0.014

MLKL (UniProt Q8NB16)
inactive: [3] 0.079 | volasertib 0.042 | epoxomicin -0.104 | [5] -0.221 | [1] -0.089 | [6] 0.03 | [2] 0.061 | sotrastaurin 0.009 | alvocidib -0.284 | Tubastatin A -0.003 | [8] -0.355 | defactinib -0.106 | rucaparib -0.003 | encorafenib -0.04 | [10] 0.018

MMGT1 (UniProt Q8N4V1)
inactive: volasertib -0.011 | [4] 0.009 | epoxomicin 0.032 | [5] 0.023 | [6] -0.035 | rosiglitazone -0.002 | [7] -0.044 | saracatinib 0.007 | sotrastaurin 0.13 | alvocidib -0.029 | Tubastatin A -0.078 | [8] 0.043 | defactinib 0.121 | [9] -0.001 | [10] -0.062

MLH1 (UniProt P40692)
inactive: volasertib -0.385 | epoxomicin 0.11 | [1] 0.073 | [7] 0.268 | [2] 0.112 | saracatinib -0.103 | Tubastatin A 0.158 | [9] -0.168

MKRN1 (UniProt Q9UHC7)
inactive: volasertib 0.005 | [4] -0.079 | epoxomicin -0.142 | [5] -0.092 | [1] 0.056 | [6] -0.056 | rosiglitazone 0.072 | [2] 0.035 | alvocidib 0.103 | Tubastatin A 0.089 | [8] 0.095 | defactinib 0.067 | [10] 0.043

MID1IP1 (UniProt Q9NPA3)
inactive: volasertib -0.222 | [4] 0.125 | epoxomicin -0.163 | [5] 0.012 | [1] -0.107 | [6] 0.051 | rosiglitazone 0.11 | [7] 0.022 | [2] -0.026 | saracatinib -0.095 | sotrastaurin -0.155 | Tubastatin A 0.248 | [8] 0.047 | defactinib -0.212 | [9] -0.059 | [10] -0.126

MIER3 isoform 2 (UniProt Q7Z3K6)
inactive: [6] 0 | defactinib -0.011 | [10] 0.117

MLLT10 (UniProt P55197)
inactive: volasertib -0.051 | epoxomicin -0.153 | [1] 0.118 | rosiglitazone -0.178 | [2] -0.138

MME (UniProt P08473)
inactive: [3] 0.002 | [5] -0.085 | [6] 0.061 | rosiglitazone -0.138 | [7] 0.08 | saracatinib -0.122 | [8] -0.002 | defactinib 0.028 | rucaparib 0 | [9] -0.05 | encorafenib 0.139 | [10] 0.08

MPZL1 isoform 3 (UniProt O95297)
inactive: [7] -0.145 | saracatinib -0.226 | alvocidib -0.076 | Tubastatin A 0.032 | [9] 0.004

MRM2 (UniProt Q9UI43)
inactive: volasertib -0.083 | [4] 0.008 | [6] -0.122 | [7] -0.042 | saracatinib 0.173 | Tubastatin A -0.07 | [8] 0.033 | defactinib -0.24 | [9] 0.004 | [10] 0.101

MICA (UniProt Q29983)
inactive: volasertib 0.024 | [5] -0.079 | [1] -0.066 | [6] 0.033 | rosiglitazone -0.007 | [2] 0.151 | sotrastaurin -0.018 | Tubastatin A 0.007 | [8] -0.035 | defactinib -0.01 | [10] -0.113

MOSPD1 isoform 3 (UniProt Q9UJG1)
inactive: [4] -0.015 | [5] -0.139 | [1] -0.033 | [2] 0.268 | [8] 0.013

MPRIP isoform 2 (UniProt Q6WCQ1)
inactive: volasertib -0.209 | [4] 0.047 | epoxomicin 0.029 | [5] 0.021 | [1] 0.046 | [6] -0.011 | rosiglitazone 0.085 | [7] -0.046 | [2] -0.134 | saracatinib 0.036 | sotrastaurin -0.014 | alvocidib -0.013 | Tubastatin A 0.095 | [8] -0.099 | defactinib 0.037 | [9] 0.014 | [10] 0.02

MPC1 (UniProt Q9Y5U8)
inactive: [3] -0.287 | volasertib -0.051 | [4] -0.073 | [5] -0.03 | rosiglitazone -0.21 | [7] -0.019 | saracatinib 0.064 | sotrastaurin -0.03 | alvocidib -0.067 | Tubastatin A 0.032 | [8] 0.039 | rucaparib 0.121 | [9] 0.037 | encorafenib -0.222
